This passage reports binding results from PMC12823420.

No constants are given. Whether binding was seen depends on the method and setting. Binding seen in cells or lysates may run through a third protein. These calls come from enrichment with a bait or labelling near it, and not all partners need be listed.

Assay [1] has as its target GFP–UAP56 (endogenously tagged eGFP–3C–DDX39B) (human (endogenous in K562)) (UniProt Q13838). Put plainly: affinity purification with mass spectrometry; GFP-Trap IP from benzonase-treated nuclear lysate of GFP–UAP56 K562 cells against WT K562; on-bead digest, MS.
Assay [2] addresses V5-flag-TurboID-tagged UAP56 mutant M1 (D49R/L51D) (human) (UniProt Q13838). Put plainly: affinity purification with mass spectrometry; anti-flag M2 IP of V5-flag-TurboID-UAP56 WT or mutants M1–M3 from K562 nuclei, quantitative MS against V5-flag-TurboID-eGFP-NLS or WT UAP56.

B1: endogenous RBM27 (K562) (protein, UniProt Q9P2N5 1-1060)
chain: MLIEDVDALKSWLAKLLEPICDADPSALANYVVALVKKDKPEKELKAFCADQLDVFLQKETSGFVDKLFESLYTKNYLPLLEPVKPEPKPLVQEKEEIKEEVFQEPAEEERDGRKKKYPSPQKTRSESSERRTREKKREDGKWRDYDRYYERNELYREKYDWRRGRSKSRSKSRGLSRSRSRSRGRSKDRDPNRNVEHRERSKFKSERNDLESSYVPVSAPPPNSSEQYSSGAQSIPSTVTVIAPAHHSENTTESWSNYYNNHSSSNSFGRNLPPKRRCRDYDERGFCVLGDLCQFDHGNDPLVVDEVALPSMIPFPPPPPGLPPPPPPGMLMPPMPGPGPGPGPGPGPGPGPGPGPGHSMRLPVPQGHGQPPPSVVLPIPRPPITQSSLINSRDQPGTSAVPNLASVGTRLPPPLPQNLLYTVSERQPMYSREHGAAASERLQLGTPPPLLAARLVPPRNLMGSSIGYHTSVSSPTPLVPDTYEPDGYNPEAPSITSSGRSQYRQFFSRTQTQRPNLIGLTSGDMDVNPRAANIVIQTEPPVPVSINSNITRVVLEPDSRKRAMSGLEGPLTKKPWLGKQGNNNQNKPGFLRKNQYTNTKLEVKKIPQELNNITKLNEHFSKFGTIVNIQVAFKGDPEAALIQYLTNEEARKAISSTEAVLNNRFIRVLWHRENNEQPTLQSSAQLLLQQQQTLSHLSQQHHHLPQHLHQQQVLVAQSAPSTVHGGIQKMMSKPQTSGAYVLNKVPVKHRLGHAGGNQSDASHLLNQSGGAGEDCQIFSTPGHPKMIYSSSNLKTPSKLCSGSKSHDVQEVLKKKQEAMKLQQDMRKKRQEVLEKQIECQKMLISKLEKNKNMKPEERANIMKTLKELGEKISQLKDELKTSSAVSTPSKVKTKTEAQKELLDTELDLHKRLSSGEDTTELRKKLSQLQVEAARLGILPVGRGKTMSSQGRGRGRGRGGRGRGSLNHMVVDHRPKALTVGGFIEEEKEDLLQHFSTANQGPKFKDRRLQISWHKPKVPSISTETEEEEVKEEETETSDLFLPDDDDEDEDEYESRSWRR
For B1, the binding entry in assay [1] is reported as “binds”.

B2: endogenous NCBP3 (K562) (protein, UniProt Q53F19 1-620)
chain: MAAVRGLRVSVKAEAPAGPALGLPSPEAESGVDRGEPEPMEVEEGELEIVPVRRSLKELIPDTSRRYENKAGSFITGIDVTSKEAIEKKEQRAKRFHFRSEVNLAQRNVALDRDMMKKAIPKVRLETIYICGVDEMSTQDVFSYFKEYPPAHIEWLDDTSCNVVWLDEMTATRALINMSSLPAQDKIRSRDASEDKSAEKRKKDKQEDSSDDDEAEEGEVEDENSSDVELDTLSQVEEESLLRNDLRPANKLAKGNRLFMRFATKDDKKELGAARRSQYYMKYGNPNYGGMKGILSNSWKRRYHSRRIQRDVIKKRALIGDDVGLTSYKHRHSGLVNVPEEPIEEEEEEEEEEEEEEEEDQDMDADDRVVVEYHEELPALKQPRERSASRRSSASSSDSDEMDYDLELKMISTPSPKKSMKMTMYADEVESQLKNIRNSMRADSVSSSNIKNRIGNKLPPEKFADVRHLLDEKRQHSRPRPPVSSTKSDIRQRLGKRPHSPEKAFSSNPVVRREPSSDVHSRLGVPRQDSKGLYADTREKKSGNLWTRLGSAPKTKEKNTKKVDHRAPGAEEDDSELQRAWGALIKEKEQSRQKKSRLDNLPSLQIEVSRESSSGSEAES
Consider B2, for which the binding result in assay [1] is listed as “binds”.

B3: endogenous UIF (K562) (protein, UniProt Q96QD9 1-318)
chain: MNRFGTRLVGATATSSPPPKARSNENLDKIDMSLDDIIKLNRKEGKKQNFPRLNRRLLQQSGAQQFRMRVRWGIQQNSGFGKTSLNRRGRVMPGKRRPNGVITGLAARKTTGIRKGISPMNRPPLSDKNIEQYFPVLKRKANLLRQNEGQRKPVAVLKRPSQLSRKNNIPANFTRSGNKLNHQKDTRQATFLFRRGLKVQAQLNTEQLLDDVVAKRTRQWRTSTTNGGILTVSIDNPGAVQCPVTQKPRLTRTAVPSFLTKREQSDVKKVPKGVPLQFDINSVGKQTGMTLNERFGILKEQRATLTYNKGGSRFVTVG
Regarding B3, the binding result in assay [1] is on record as “binds”.

B4: endogenous SARNP (K562) (protein, UniProt P82979 1-210)
chain: MATETVELHKLKLAELKQECLARGLETKGIKQDLIHRLQAYLEEHAEEEANEEDVLGDETEEEETKPIELPVKEEEPPEKTVDVAAEKKVVKITSEIPQTERMQKRAERFNVPVSLESKKAARAARFGISSVPTKGLSSDNKPMVNLDKLKERAQRFGLNVSSISRKSEDDEKLKKRKERFGIVTSSAGTGTTEDTEAKKRKRAERFGIA
For the molecule B4, the binding result in assay [1] and in assay [2] was “binds” throughout.
